These are yes or no findings as the source states them, for the method shown. Binding seen in cells or lysates may run through a third protein. Some entries that bind do so weakly or less than the wild type. For some of these results: Where a sequence is shown, tags or fusion partners need not be part of it.
How the values were obtained:
[1] = target: T1, Flag-USP3 (ubiquitin-specific protease 3) (human) (UniProt Q9Y6I4); assay: co-IP; Flag-USP3 and Myc-Oct4 co-transfected into HEK293 cells; RIPA lysate; IP with anti-Flag or anti-Myc antibody at 4 °C overnight, Protein A/G Plus Agarose beads; blot with the reciprocal antibody
T1 sequence: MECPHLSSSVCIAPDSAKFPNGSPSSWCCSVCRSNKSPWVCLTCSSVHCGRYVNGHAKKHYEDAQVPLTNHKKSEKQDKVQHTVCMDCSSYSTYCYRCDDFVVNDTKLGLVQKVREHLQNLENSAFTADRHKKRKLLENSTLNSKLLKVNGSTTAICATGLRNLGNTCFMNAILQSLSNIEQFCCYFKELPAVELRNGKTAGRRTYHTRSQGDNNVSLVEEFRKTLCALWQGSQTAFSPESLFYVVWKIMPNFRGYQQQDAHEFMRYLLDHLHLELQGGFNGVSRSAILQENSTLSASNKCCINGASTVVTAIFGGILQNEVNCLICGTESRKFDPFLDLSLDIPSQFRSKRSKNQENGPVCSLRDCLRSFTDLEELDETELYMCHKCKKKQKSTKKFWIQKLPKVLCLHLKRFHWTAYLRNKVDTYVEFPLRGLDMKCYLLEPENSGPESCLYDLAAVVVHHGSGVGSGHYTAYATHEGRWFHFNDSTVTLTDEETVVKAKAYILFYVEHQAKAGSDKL

Chains of the proteins cited; added tags and fusions are not shown.
UniProt Q01860: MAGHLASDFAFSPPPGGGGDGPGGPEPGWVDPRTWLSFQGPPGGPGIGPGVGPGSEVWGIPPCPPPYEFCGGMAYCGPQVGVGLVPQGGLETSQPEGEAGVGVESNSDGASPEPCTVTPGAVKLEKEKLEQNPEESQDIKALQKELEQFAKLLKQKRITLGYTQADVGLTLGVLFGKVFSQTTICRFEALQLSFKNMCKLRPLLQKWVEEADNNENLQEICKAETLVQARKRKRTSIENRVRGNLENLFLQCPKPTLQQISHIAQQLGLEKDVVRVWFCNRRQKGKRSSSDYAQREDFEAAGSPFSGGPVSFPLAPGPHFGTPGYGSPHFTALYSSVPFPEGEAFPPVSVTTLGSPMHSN

[2] = target: T2, endogenous USP3 (ubiquitin-specific protease 3) (human (endogenous in NCCIT and hiPSCs)) (UniProt Q9Y6I4); assay: co-IP; endogenous proteins, NCCIT cells; RIPA lysate; IP with anti-USP3 antibody at 4 °C overnight, Protein A/G Plus Agarose beads; blot with anti-Oct4
T2 sequence: T1 sequence

[3] = target: T2, endogenous USP3 (ubiquitin-specific protease 3) (human (endogenous in NCCIT and hiPSCs)); assay: co-IP; endogenous proteins, human iPSCs; RIPA lysate; IP with anti-USP3 antibody at 4 °C overnight, Protein A/G Plus Agarose beads; blot with anti-Oct4
[4] = target: Myc-Oct4 (octamer-binding factor 4) (UniProt Q01860); assay: co-IP; Flag-USP3 and Myc-Oct4 co-transfected into HEK293 cells; RIPA lysate; IP with anti-Flag or anti-Myc antibody at 4 °C overnight, Protein A/G Plus Agarose beads; blot with the reciprocal antibody

Myc-Oct4 (octamer-binding factor 4) (from UniProt Q01860 1-360)
binding [1]: binds

endogenous Oct4 (octamer-binding factor 4) (from UniProt Q01860 1-360)
binding [2]: binds
binding [3]: binds

B1: Flag-USP3 (ubiquitin-specific protease 3) (enzyme, UniProt Q9Y6I4 1-520)
chain: T1 sequence
binding [4]: binds

Reference: paper PMC8197518
